From the supplement of paper PMC10735217
Structures can show the parent of a compound that is named as a salt. The list shows a part of the results. Single values are uncertain here, since repeats match poorly.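 Human kidney-derived cells stably carry a construct in which eight TEAD-binding elements drive luciferase, measured by luminescence in a drug-repurposing library screen. A hit is any compound whose signal exceeds the plate mean by more than five robust Z scores.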

Tested on: HEK293A TEAD-LUC reporter
Assay: TEAD-luciferase reporter activity (YAP activation), robust Z score vs plate; higher = stronger YAP/TEAD activation
Conditions: 24 h

`C=C[C@@](C)(/C=C/c1ccc(O)cc1)CCC=C(C)C` [Drupanol] was tested, and the TEAD-luciferase reporter activity (compound concentration: 200 nM) was inactive: 0.454, the TEAD-luciferase reporter activity (compound concentration: 2 uM) was inactive: -1.6 and the TEAD-luciferase reporter activity (compound concentration: 10 uM) was active: 6.39.

For `CC(=O)C1=C(O)/C(=C(\C)Nc2ccc(O)c(N)c2)C(=O)OC1=O`, the TEAD-luciferase reporter activity (compound concentration: 200 nM) was inactive: 0.353, the TEAD-luciferase reporter activity (compound concentration: 2 uM) was inactive: -0.99 and the TEAD-luciferase reporter activity (compound concentration: 10 uM) was inactive: -0.111.

In the case of `CC(CCc1ccc(I)cc1)CC(=O)O` (configuration not stated), the TEAD-luciferase reporter activity (compound concentration: 200 nM) is reported as inactive: 0.909, the TEAD-luciferase reporter activity (compound concentration: 2 uM) is reported as inactive: -0.169 and the TEAD-luciferase reporter activity (compound concentration: 10 uM) is reported as inactive: 1.88.

In the case of `NC(=O)c1nc(-c2ccc(F)cc2)c(CCN2CCC(=Cc3cccc(F)c3)CC2)s1`, the TEAD-luciferase reporter activity (compound concentration: 200 nM) is reported as inactive: -0.117, the TEAD-luciferase reporter activity (compound concentration: 2 uM) is reported as inactive: -1.16 and the TEAD-luciferase reporter activity (compound concentration: 10 uM) is reported as inactive: -1.24.

In the case of `O=C(Nc1nc(-c2ccccc2)cs1)OCC(Cl)(Cl)Cl` [lotifazole], the TEAD-luciferase reporter activity (compound concentration: 200 nM) is reported as inactive: -0.51, the TEAD-luciferase reporter activity (compound concentration: 2 uM) is reported as inactive: -1.57 and the TEAD-luciferase reporter activity (compound concentration: 10 uM) is reported as inactive: 2.86.

In the case of `CCN(C[C@H]1COC(N)=N1)c1ccccc1`, the TEAD-luciferase reporter activity (compound concentration: 200 nM) is reported as inactive: -0.917, the TEAD-luciferase reporter activity (compound concentration: 2 uM) is reported as inactive: -1.24 and the TEAD-luciferase reporter activity (compound concentration: 10 uM) is reported as inactive: 0.41.

With `CCCCC[C@H](O)/C=C/[C@@H]1c2cc(CCCCC(=O)[O-])n(-c3ccccc3)c2C[C@H]1O` [Piriprost] the TEAD-luciferase reporter activity (compound concentration: 200 nM) was inactive: 0.321, the TEAD-luciferase reporter activity (compound concentration: 2 uM) was inactive: -0.957 and the TEAD-luciferase reporter activity (compound concentration: 10 uM) was inactive: -0.931.

In the case of `Cc1cc(CCN2CCN(c3cccc(Cl)c3)CC2)n[nH]1` [mepiprazole], the TEAD-luciferase reporter activity (compound concentration: 200 nM) is reported as inactive: 0.655, the TEAD-luciferase reporter activity (compound concentration: 2 uM) is reported as inactive: -1.05 and the TEAD-luciferase reporter activity (compound concentration: 10 uM) is reported as inactive: -0.0327.

`CCN(CCNC(=O)Nc1ccccc1Br)c1cccc(C)c1` was tested, and the TEAD-luciferase reporter activity (compound concentration: 200 nM) was inactive: -2.72, the TEAD-luciferase reporter activity (compound concentration: 2 uM) was inactive: -0.813 and the TEAD-luciferase reporter activity (compound concentration: 10 uM) was inactive: -1.32.

With `N=C(N)N` [Guanidine (HCL)] the TEAD-luciferase reporter activity (compound concentration: 2 uM) was inactive: -1.36.

For `N=C(N)N`, the TEAD-luciferase reporter activity (compound concentration: 200 nM) was inactive: -1.54 and the TEAD-luciferase reporter activity (compound concentration: 10 uM) was inactive: 0.127.

For `N=C(N)N` [Guanidine (hydrochloride)], the TEAD-luciferase reporter activity (compound concentration: 2 uM) was inactive: -1.38.

`O=C1CN(/N=C/c2ncc(-c3ccc(Br)cc3)o2)C(=O)N1` [azumolene sodium] was tested, and the TEAD-luciferase reporter activity (compound concentration: 200 nM) was inactive: -1.47, the TEAD-luciferase reporter activity (compound concentration: 2 uM) was inactive: -2.58 and the TEAD-luciferase reporter activity (compound concentration: 10 uM) was inactive: -0.144.

`CC(C)(C)CC(C)(C)c1ccc(O)c(Cc2ccc(Cl)cc2Cl)c1` [clofoctol] was tested, and the TEAD-luciferase reporter activity (compound concentration: 200 nM) was inactive: 0.166, the TEAD-luciferase reporter activity (compound concentration: 2 uM) was inactive: -0.276 and the TEAD-luciferase reporter activity (compound concentration: 10 uM) was inactive: -1.49.

For `COc1cc(CC2NCCc3cc(O)c(O)cc32)cc(OC)c1OC` (configuration not stated) [tretoquinol], the TEAD-luciferase reporter activity (compound concentration: 200 nM) was inactive: -2.03, the TEAD-luciferase reporter activity (compound concentration: 2 uM) was inactive: -1.35 and the TEAD-luciferase reporter activity (compound concentration: 10 uM) was inactive: 0.865.

`Clc1ccc(C(Cn2ccnc2)OCc2c(Cl)cccc2Cl)c(Cl)c1` (configuration not stated) [isoconazole] was tested, and the TEAD-luciferase reporter activity (compound concentration: 200 nM) was inactive: -0.645, the TEAD-luciferase reporter activity (compound concentration: 2 uM) was inactive: 0.51 and the TEAD-luciferase reporter activity (compound concentration: 10 uM) was inactive: 0.501.

For `CCN(CC)CCCNc1ccnc2cc(Cl)ccc12`, the TEAD-luciferase reporter activity (compound concentration: 200 nM) was inactive: -0.763, the TEAD-luciferase reporter activity (compound concentration: 2 uM) was inactive: 0.154 and the TEAD-luciferase reporter activity (compound concentration: 10 uM) was inactive: 4.1.

In the case of `CO/N=C(\C(=O)N[C@@H]1C(=O)N2C(C(=O)OC(C)OC(C)=O)=C(COC(N)=O)CS[C@H]12)c1ccco1` (some centres not stated) [Cefuroxime Axetil], the TEAD-luciferase reporter activity (compound concentration: 200 nM) is reported as inactive: -0.0935 and the TEAD-luciferase reporter activity (compound concentration: 10 uM) is reported as inactive: 0.365.

With `CO/N=C(\C(=O)N[C@@H]1C(=O)N2C(C(=O)OC(C)OC(C)=O)=C(COC(N)=O)CS[C@H]12)c1ccco1` (some centres not stated) [Cefuroxime axetile] the TEAD-luciferase reporter activity (compound concentration: 2 uM) was inactive: -0.409.

For `C[C@H]1[C@H](C)CC[C@]2(C(=O)O)CC[C@]3(C)C(=CC[C@@H]4[C@@]5(C)CC[C@H](O)C(C)(C)[C@@H]5CC[C@]43C)[C@H]12`, the TEAD-luciferase reporter activity (compound concentration: 200 nM) was active: 7.67, the TEAD-luciferase reporter activity (compound concentration: 2 uM) was inactive: -0.254 and the TEAD-luciferase reporter activity (compound concentration: 10 uM) was inactive: -0.348.

`O=C(O)CC[C@H](NC(=O)[C@@H](CSC1OC(=O)c2ccccc21)Cc1ccccc1)C(=O)Nc1ccccc1` (some centres not stated) was tested, and the TEAD-luciferase reporter activity (compound concentration: 200 nM) was inactive: -2.4, the TEAD-luciferase reporter activity (compound concentration: 2 uM) was inactive: 1.7 and the TEAD-luciferase reporter activity (compound concentration: 10 uM) was inactive: 3.55.

`N=C(N)Nc1ncc(Cl)c2ccc(-c3cccc(C(=O)O)c3)cc12` was tested, and the TEAD-luciferase reporter activity (compound concentration: 200 nM) was inactive: -0.0239, the TEAD-luciferase reporter activity (compound concentration: 2 uM) was inactive: -0.782 and the TEAD-luciferase reporter activity (compound concentration: 10 uM) was inactive: 1.02.

With `COc1ccccc1[C@H](c1cccc2ccccc12)[C@@](C)(C#N)C(=O)N1CCC(c2cccc(C(F)(F)F)c2)CC1` the TEAD-luciferase reporter activity (compound concentration: 200 nM) was inactive: -0.266, the TEAD-luciferase reporter activity (compound concentration: 2 uM) was inactive: 0.103 and the TEAD-luciferase reporter activity (compound concentration: 10 uM) was inactive: 4.41.

`COc1ccnc2c1CCCCC2S(=O)c1nc2ccccc2[nH]1` (configuration not stated) was tested, and the TEAD-luciferase reporter activity (compound concentration: 200 nM) was inactive: -1.32, the TEAD-luciferase reporter activity (compound concentration: 2 uM) was inactive: 0.176 and the TEAD-luciferase reporter activity (compound concentration: 10 uM) was inactive: 0.157.

`CC(C)CC(=O)N[C@@H](CCCCNC(=O)c1ccc(C(=N)N)cc1)CC(=O)O` was tested, and the TEAD-luciferase reporter activity (compound concentration: 200 nM) was inactive: -0.303, the TEAD-luciferase reporter activity (compound concentration: 2 uM) was inactive: -0.781 and the TEAD-luciferase reporter activity (compound concentration: 10 uM) was inactive: 0.292.

With `Cc1cc(C)c2c(c1)[C@@H](N(Cc1cc(C(F)(F)F)cc(C(F)(F)F)c1)c1nnn(C)n1)CCCN2C[C@H]1CC[C@H](C(=O)O)CC1` [evacetrapib] the TEAD-luciferase reporter activity (compound concentration: 200 nM) was inactive: 0.271, the TEAD-luciferase reporter activity (compound concentration: 2 uM) was inactive: -0.986 and the TEAD-luciferase reporter activity (compound concentration: 10 uM) was inactive: -0.616.

In the case of `O=C(O)CP(=O)(O)O` [fosfonet sodium], the TEAD-luciferase reporter activity (compound concentration: 200 nM) is reported as inactive: 0.586, the TEAD-luciferase reporter activity (compound concentration: 2 uM) is reported as inactive: -1.27 and the TEAD-luciferase reporter activity (compound concentration: 10 uM) is reported as inactive: -0.00988.

In the case of `CC(=O)Oc1ccc(C(=C2CCCCC2)c2ccc(OC(C)=O)cc2)cc1` [cyclofenil], the TEAD-luciferase reporter activity (compound concentration: 200 nM) is reported as inactive: -0.00172, the TEAD-luciferase reporter activity (compound concentration: 2 uM) is reported as inactive: -1.64 and the TEAD-luciferase reporter activity (compound concentration: 10 uM) is reported as inactive: -0.698.

With `COc1nc2nc(C(=O)c3ccccc3)cn2c2c1CCCC2` the TEAD-luciferase reporter activity (compound concentration: 200 nM) was inactive: 2.21, the TEAD-luciferase reporter activity (compound concentration: 2 uM) was inactive: -1.34 and the TEAD-luciferase reporter activity (compound concentration: 10 uM) was inactive: 1.81.

For `Cn1c(=O)c2[nH]c(Cc3ccc(Cl)cc3)nc2n(C)c1=O`, the TEAD-luciferase reporter activity (compound concentration: 200 nM) was inactive: -2.62, the TEAD-luciferase reporter activity (compound concentration: 2 uM) was inactive: 0.648 and the TEAD-luciferase reporter activity (compound concentration: 10 uM) was inactive: 3.46.

With `Cc1nc2ccccc2c(-c2ccc3c(c2)CCCO3)c1C(OC(C)(C)C)C(=O)O` (configuration not stated) the TEAD-luciferase reporter activity (compound concentration: 200 nM) was inactive: 0.149, the TEAD-luciferase reporter activity (compound concentration: 2 uM) was inactive: 1.58 and the TEAD-luciferase reporter activity (compound concentration: 10 uM) was inactive: -2.01.

With `O=C(O)/C=C/c1ccc(Cn2ccnc2)cc1` the TEAD-luciferase reporter activity (compound concentration: 200 nM) was inactive: -1.19 and the TEAD-luciferase reporter activity (compound concentration: 10 uM) was inactive: -0.0937.

In the case of `O=C(O)/C=C/c1ccc(Cn2ccnc2)cc1` [ozagrel], the TEAD-luciferase reporter activity (compound concentration: 2 uM) is reported as inactive: -0.0265.

`COc1cc2ncnc(N3CCN(C(=O)OCC(C)C)CC3)c2cc1OC` was tested, and the TEAD-luciferase reporter activity (compound concentration: 200 nM) was inactive: -0.25, the TEAD-luciferase reporter activity (compound concentration: 2 uM) was inactive: -2.28 and the TEAD-luciferase reporter activity (compound concentration: 10 uM) was inactive: 1.93.

For `CN1CCC(=C2c3ccccc3CCc3sccc32)CC1` [Pizotyline], the TEAD-luciferase reporter activity (compound concentration: 200 nM) was inactive: -1.05 and the TEAD-luciferase reporter activity (compound concentration: 10 uM) was inactive: -0.222.

For `CN1CCC(=C2c3ccccc3CCc3sccc32)CC1` [pizotifen], the TEAD-luciferase reporter activity (compound concentration: 2 uM) was inactive: -0.11.

`CC(C)[C@@H]1NC(=O)[C@H](CCCCN)NC(=O)[C@@H](Cc2c[nH]c3ccccc23)NC(=O)[C@H](Cc2ccc(O)cc2)NC(=O)[C@H](C)N(C)C(=O)[C@H](Cc2ccccc2)NC1=O` [Seglitide] was tested, and the TEAD-luciferase reporter activity (compound concentration: 200 nM) was inactive: -0.825, the TEAD-luciferase reporter activity (compound concentration: 2 uM) was inactive: 0.238 and the TEAD-luciferase reporter activity (compound concentration: 10 uM) was inactive: -3.
